Experimental data from paper PMC3897919, “ERAD and protein import defects in a sec61 mutant lacking ER-lumenal loop 7” (BMC Cell Biology, 2013).
Results are given in words; binding and its absence hold for the method and conditions named. Binding seen in cells or lysates may run through a third protein. Some results given as binding are weak or reduced against the parent protein; the word gives no strength.

T1: Sec71p (S. cerevisiae (endogenous in yeast microsomes)) (UniProt P33754)
T1 sequence (chain, glycosylated (the only glycosylated Sec complex subunit)): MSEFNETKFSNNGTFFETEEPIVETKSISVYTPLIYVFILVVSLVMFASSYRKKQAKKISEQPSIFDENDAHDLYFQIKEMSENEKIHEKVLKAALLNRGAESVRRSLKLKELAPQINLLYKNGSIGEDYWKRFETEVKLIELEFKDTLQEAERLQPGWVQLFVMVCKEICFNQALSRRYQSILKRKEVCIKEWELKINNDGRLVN

T2: Sec61p (wildtype) (S. cerevisiae) (UniProt P32915)
T2 sequence: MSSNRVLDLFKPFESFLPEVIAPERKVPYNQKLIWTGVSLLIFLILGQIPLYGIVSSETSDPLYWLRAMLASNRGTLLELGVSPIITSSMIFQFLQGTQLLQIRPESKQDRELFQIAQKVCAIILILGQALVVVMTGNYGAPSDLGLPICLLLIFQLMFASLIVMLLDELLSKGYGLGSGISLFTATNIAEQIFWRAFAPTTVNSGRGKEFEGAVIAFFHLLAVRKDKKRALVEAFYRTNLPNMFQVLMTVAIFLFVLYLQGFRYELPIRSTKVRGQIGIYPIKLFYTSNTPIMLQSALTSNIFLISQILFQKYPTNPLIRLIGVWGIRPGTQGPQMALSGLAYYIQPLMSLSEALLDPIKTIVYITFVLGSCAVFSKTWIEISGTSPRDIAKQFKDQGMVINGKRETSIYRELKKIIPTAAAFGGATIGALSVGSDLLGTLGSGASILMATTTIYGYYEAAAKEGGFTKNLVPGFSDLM


Tests used:
[1] = target: T1, Sec71p (S. cerevisiae (endogenous in yeast microsomes)); experiment: pull-down; microsomes solubilized in digitonin, ribosome-bound Sec61 complex removed by ultracentrifugation; heptameric Sec complex precipitated through the Sec71p glycoprotein with ConA-Sepharose (1 h, 4°C); Sec61p and Sec62p in supernatant and precipitates detected by immunoblotting
[2] = target: T2, Sec61p (wildtype) (S. cerevisiae); experiment: cross-linking; intact microsomes in B88, pH 7.9, treated with DSS for 20 min at 20°C, quenched with ammonium acetate; SDS-PAGE and immunoblotting with anti-Sec61p or anti-Sss1p antibodies
[3] = target: T2, Sec61p (wildtype) (S. cerevisiae); experiment: co-sedimentation; microsomes solubilized in 1% Triton X-100, 500 mM potassium acetate, HEPES-KOH pH 7.5; 0-15% sucrose gradient, 200,000 g, 4°C, 16 h; 13 fractions from the top, immunoblotting for Sec61p, Sss1p, Sbh1p
[4] = target: T2, Sec61p (wildtype) (S. cerevisiae); experiment: cross-linking; data not shown: DSS cross-linking of wildtype microsomes, immunoblotting of the crosslinked material with antibodies against Sbh1p

| Binder | binding [1] | binding [2] | binding [3] | binding [4] |
| --- | --- | --- | --- | --- |
| Sec61∆L7p (protein, UniProt P32915) MSSNRVLDLFKPFESFLPEVIAPERKVPYNQKLIWTGVSLLIFLILGQIPLYGIVSSETSDPLYWLRAMLASNRGTLLELGVSPIITSSMIFQFLQGTQLLQIRPESKQDRELFQIAQKVCAIILILGQALVVVMTGNYGAPSDLGLPICLLLIFQLMFASLIVMLLDELLSKGYGLGSGISLFTATNIAEQIFWRAFAPTTVNSGRGKEFEGAVIAFFHLLAVRKDKKRALVEAFYRTNLPNMFQVLMTVAIFLFVLYLQGFRYELPIRSTKVRGQIGIYPIKLFYTSNTPIMLQSALTSNIFRESCAVFSKTWIEISGTSPRDIAKQFKDQGMVINGKRETSIYRELKKIIPTAAAFGGATIGALSVGSDLLGTLGSGASILMATTTIYGYYEAAAKEGGFTKNLVPGFSDLM | binds | – | – | – |
| Sss1p (natural protein, UniProt P35179 1-80, looked up, Sss1p, small subunit of the trimeric Sec61 complex, yeast; source: endogenous, yeast microsomes) MARASEKGEEKKQSNNQVEKLVEAPVEFVREGTQFLAKCKKPDLKEYTKIVKAVGIGFIAVGIIGYAIKLIHIPIRYVIV | – | binds | binds | – |

Continued, values first:

| binding [1] | binding [2] | binding [3] | binding [4] | Binder |
| --- | --- | --- | --- | --- |
| binds | – | – | – | Sec62p (protein, UniProt P21825 1-274) MSAVGPGSNAGASVNGGSATAIATLLRNHKELKQRQGLFQAKQTDFFRYKRFVRALHSEEYANKSARQPEIYPTIPSNKIEDQLKSREIFIQLIKAQMVIPVKKLHSQECKEHGLKPSKDFPHLIVSNKAQLEADEYFVWNYNPRTYMDYLIVIGVVSIILALVCYPLWPRSMRRGSYYVSLGAFGILAGFFAVAILRLILYVLSLIVYKDVGGFWIFPNLFEDCGVLESFKPLYGFGEKDTYSYKKKLKRMKKKQAKRESNKKKAINEKAEQN |
| – | – | binds | binds weakly | Sbh1p (protein, UniProt P52870 1-82) MSSPTPPGGQRTLQKRKQGSSQKVAASAPKKNTNSNNSILKIYSDEATGLRVDPLVVLFLAVGFIFSVVALHVISKVAGKLF |
